# According to publication doi:10.1101/2021.09.16.460581:
# Results are given in words; binding and its absence hold for the method and conditions named. Binding seen in cells or lysates may run through a third protein. A yes stands for co-enrichment or nearness to the bait. Other partners may have been found. Where a sequence is shown, tags or fusion partners need not be part of it.
# T1: Mrc1-YFP (S. cerevisiae) (UniProt P25588)
# T1 sequence: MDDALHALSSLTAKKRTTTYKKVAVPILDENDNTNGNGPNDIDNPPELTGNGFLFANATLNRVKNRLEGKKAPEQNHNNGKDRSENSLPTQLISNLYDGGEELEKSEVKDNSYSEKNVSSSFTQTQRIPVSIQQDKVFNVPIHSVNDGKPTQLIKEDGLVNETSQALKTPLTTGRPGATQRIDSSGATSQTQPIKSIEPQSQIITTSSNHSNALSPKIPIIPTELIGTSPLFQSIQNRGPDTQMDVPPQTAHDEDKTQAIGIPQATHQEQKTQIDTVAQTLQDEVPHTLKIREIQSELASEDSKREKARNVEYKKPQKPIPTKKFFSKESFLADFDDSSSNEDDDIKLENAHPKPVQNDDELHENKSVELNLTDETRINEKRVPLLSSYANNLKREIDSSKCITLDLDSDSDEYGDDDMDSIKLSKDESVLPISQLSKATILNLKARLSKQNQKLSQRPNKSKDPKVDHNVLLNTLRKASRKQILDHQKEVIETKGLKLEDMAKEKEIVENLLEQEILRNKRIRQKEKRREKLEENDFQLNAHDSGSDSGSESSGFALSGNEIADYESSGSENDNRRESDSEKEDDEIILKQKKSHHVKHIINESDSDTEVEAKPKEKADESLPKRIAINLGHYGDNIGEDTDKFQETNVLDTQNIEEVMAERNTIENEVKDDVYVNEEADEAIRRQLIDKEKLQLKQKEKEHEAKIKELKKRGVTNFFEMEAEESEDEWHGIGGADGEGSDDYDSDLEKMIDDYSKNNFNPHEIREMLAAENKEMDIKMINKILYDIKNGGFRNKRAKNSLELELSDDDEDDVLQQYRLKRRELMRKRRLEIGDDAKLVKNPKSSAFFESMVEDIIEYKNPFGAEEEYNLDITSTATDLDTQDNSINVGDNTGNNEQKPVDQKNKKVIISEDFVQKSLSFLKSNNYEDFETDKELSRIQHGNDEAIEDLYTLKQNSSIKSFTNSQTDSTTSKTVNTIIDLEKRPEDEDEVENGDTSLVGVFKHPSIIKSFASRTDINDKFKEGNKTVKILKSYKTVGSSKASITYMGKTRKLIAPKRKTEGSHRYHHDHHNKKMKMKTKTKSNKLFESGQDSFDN
# B1: Pds5 (protein, UniProt Q04264 1-1277)
# chain: MAKGAVTKLKFNSPIISTSDQLISTNELLDRLKALHEELASLDQDNTDLTGLDKYRDALVSRKLLKHKDVGIRAFTACCLSDILRLYAPDAPYTDAQLTDIFKLVLSQFEQLGDQENGYHIQQTYLITKLLEYRSIVLLADLPSSNNLLIELFHIFYDPNKSFPARLFNVIGGILGEVISEFDSVPLEVLRLIFNKFLTYNPNEIPEGLNVTSDCGYEVSLILCDTYSNRMSRHLTKYYSEIIHEATNDDNNSRLLTVVVKLHKLVLRLWETVPELINAVIGFIYHELSSENELFRKEATKLIGQILTSYSDLNFVSTHSDTFKAWISKIADISPDVRVEWTESIPQIIATREDISKELNQALAKTFIDSDPRVRRTSVMIFNKVPVTEIWKNITNKAIYTSLLHLAREKHKEVRELCINTMAKFYSNSLNEIERTYQNKEIWEIIDTIPSTLYNLYYINDLNINEQVDSVIFEYLLPFEPDNDKRVHRLLTVLSHFDKKAFTSFFAFNARQIKISFAISKYIDFSKFLNNQESMSSSQGPIVMNKYNQTLQWLASGLSDSTKAIDALETIKQFNDERIFYLLNACVTNDIPFLTFKNCYNELVSKLQTPGLFKKYNISTGASIMPRDIAKVIQILLFRASPIIYNVSNISVLLNLSNNSDAKQLDLKRRILDDISKVNPTLFKDQIRTLKTIIKDLDDPDAEKNDNLSLEEALKTLYKASKTLKDQVDFDDTFFFTKLYDFAVESKPEITKYATKLIALSPKAEETLKKIKIRILPLDLQKDKYFTSHIIVLMEIFKKFPHVLNDDSTDIISYLIKEVLLSNQVVGDSKKEIDWVEDSLLSDTKYSAIGNKVFTLKLFTNKLRSIAPDVPRDELAESFTEKTMKLFFYLIASGGELISEFNKEFYPTPSNYQTKLRCVAGIQVLKLARISNLNNFIKPSDIIKLINLVEDESLPVRKTFLEQLKDYVANELISIKFLPLVFFTAYEPDVELKTTTKIWINFTFGLKSFKKGTIFERALPRLIHAIAHHPDIVGGLDSEGDAYLNALTTAIDYLLFYFDSIAAQENFSLLYYLSERVKNYQDKLVEDEIDEEEGPQKEEAPKKHRPYGQKMYIIGELSQMILLNLKEKKNWQHSAYPGKLNLPSDLFKPFATVQEAQLSFKTYIPESLTEKIQNNIKAKIGRILHTSQTQRQRLQKRLLAHENNESQKKKKKVHHARSQADDEEGDGDRESDSDDDSYSPSNKNETKKGHENIVMKKLRVRKEVDYKDDEDDDIEMT
# B2: Smc1 (protein, UniProt P32908 1-1225)
# chain: MGRLVGLELSNFKSYRGVTKVGFGESNFTSIIGPNGSGKSNMMDAISFVLGVRSNHLRSNILKDLIYRGVLNDENSDDYDNEGAASSNPQSAYVKAFYQKGNKLVELMRIISRNGDTSYKIDGKTVSYKDYSIFLENENILIKAKNFLVFQGDVEQIAAQSPVELSRMFEEVSGSIQYKKEYEELKEKIEKLSKSATESIKNRRRIHGELKTYKEGINKNEEYRKQLDKKNELQKFQALWQLYHLEQQKEELTDKLSALNSEISSLKGKINNEMKSLQRSKSSFVKESAVISKQKSKLDYIFKDKEKLVSDLRLIKVPQQAAGKRISHIEKRIESLQKDLQRQKTYVERFETQLKVVTRSKEAFEEEIKQSARNYDKFKLNENDLKTYNCLHEKYLTEGGSILEEKIAVLNNDKREIQEELERFNKRADISKRRITEELSITGEKLDTQLNDLRVSLNEKNALHTERLHELKKLQSDIESANNQEYDLNFKLRETLVKIDDLSANQRETMKERKLRENIAMLKRFFPGVKGLVHDLCHPKKEKYGLAVSTILGKNFDSVIVENLTVAQECIAFLKKQRAGTASFIPLDTIETELPTLSLPDSQDYILSINAIDYEPEYEKAMQYVCGDSIICNTLNIAKDLKWKKGIRGKLVTIEGALIHKAGLMTGGISGDANNRWDKEEYQSLMSLKDKLLIQIDELSNGQRSNSIRAREVENSVSLLNSDIANLRTQVTQQKRSLDENRLEIKYHNDLIEKEIQPKITELKKKLDDLENTKDNLVKEKEALQNNIFKEFTSKIGFTIKEYENHSGELMRQQSKELQQLQKQILTVENKLQFETDRLSTTQRRYEKAQKDLENAQVEMKSLEEQEYAIEMKIGSIESKLEEHKNHLDELQKKFVTKQSELNSSEDILEDMNSNLQVLKRERDGIKEDIEKFDLERVTALKNCKISNINIPISSETTIDDLPISSTDNEAITISNSIDINYKGLPKKYKENNTDSARKELEQKIHEVEEILNELQPNARALERYDEAEGRFEVINNETEQLKAEEKKILNQFLKIKKKRKELFEKTFDYVSDHLDAIYRELTKNPNSNVELAGGNASLTIEDEDEPFNAGIKYHATPPLKRFKDMEYLSGGEKTVAALALLFAINSYQPSPFFVLDEVDAALDITNVQRIAAYIRRHRNPDLQFIVISLKNTMFEKSDALVGVYRQQQENSSKIITLDLSNYAE
# B3: Hsp26 (protein, UniProt P15992 1-214)
# chain: MSFNSPFFDFFDNINNEVDAFNRLLGEGGLRGYAPRRQLANTPAKDSTGKEVARPNNYAGALYDPRDETLDDWFDNDLSLFPSGFGFPRSVAVPVDILDHDNNYELKVVVPGVKSKKDIDIEYHQNKNQILVSGEIPSTLNEESKDKVKVKESSSGKFKRVITLPDYPGVDADNIKADYANGVLTLTVPKLKPQKDGKNHVKKIEVSSQESWGN
# B4: Mcm4 (protein, UniProt P30665 1-933)
# chain: MSQQSSSPTKEDNNSSSPVVPNPDSVPPQLSSPALFYSSSSSQGDIYGRNNSQNLSQGEGNIRAAIGSSPLNFPSSSQRQNSDVFQSQGRQGRIRSSASASGRSRYHSDLRSDRALPTSSSSLGRNGQNRVHMRRNDIHTSDLSSPRRIVDFDTRSGVNTLDTSSSSAPPSEASEPLRIIWGTNVSIQECTTNFRNFLMSFKYKFRKILDEREEFINNTTDEELYYIKQLNEMRELGTSNLNLDARNLLAYKQTEDLYHQLLNYPQEVISIMDQTIKDCMVSLIVDNNLDYDLDEIETKFYKVRPYNVGSCKGMRELNPNDIDKLINLKGLVLRSTPVIPDMKVAFFKCNVCDHTMAVEIDRGVIQEPARCERIDCNEPNSMSLIHNRCSFADKQVIKLQETPDFVPDGQTPHSISLCVYDELVDSCRAGDRIEVTGTFRSIPIRANSRQRVLKSLYKTYVDVVHVKKVSDKRLDVDTSTIEQELMQNKVDHNEVEEVRQITDQDLAKIREVAAREDLYSLLARSIAPSIYELEDVKKGILLQLFGGTNKTFTKGGRYRGDINILLCGDPSTSKSQILQYVHKITPRGVYTSGKGSSAVGLTAYITRDVDTKQLVLESGALVLSDGGVCCIDEFDKMSDSTRSVLHEVMEQQTISIAKAGIITTLNARSSILASANPIGSRYNPNLPVTENIDLPPPLLSRFDLVYLVLDKVDEKNDRELAKHLTNLYLEDKPEHISQDDVLPVEFLTMYISYAKEHIHPIITEAAKTELVRAYVGMRKMGDDSRSDEKRITATTRQLESMIRLAEAHAKMKLKNVVELEDVQEAVRLIRSAIKDYATDPKTGKIDMNLVQTGKSVIQRKLQEDLSREIMNVLKDQASDSMSFNELIKQINEHSQDRVESSDIQEALSRLQQEDKVIVLGEGVRRSVRLNNRV
# B5: Irr1 (protein, UniProt P40541 1-1150)
# chain: MTAVRRSTRIRTKSQVIEEDYDDEQNTSAQHVESDKITAKTQHEEEEEQDTGESEESSSEDDYEDQDDDDYVDTATAKRKSRKRKPKSASNTSSKRQKKKPTSAQKSAVSHAPAYHRSKKDQDQYLEIAKDFQPTELFDILSTSEDVSIEELLREWLETYSENRDKFLQEFINLLLNCCGSVARVEDHDVHSNESSNETIGEIQLLFQRQKLHEFYLLISKENKKRKNFKMGPLYQNFAEFMTKLLEVANDLQLLYVESDEDDTQIVTGNLVLDLLTWLSSFSVCKIRCFRYISTLTLYLFQDYLTQQAVNLEKNYLAKLSKQLSLEEKKKRPNNKTLEKLESTIAETQGSKVVIDSIIDNIVKLCFVHRYKDVSDLIRSESMLHLSIWIKNYPEYFLKVTFLKYFGWLLSDNSVSVRLQVTKILPHLIIQNHNSKSTDNSAIRQVFERFKTKILEVAIRDVNLDVRIHSIQVLTEASSLGYLDDSEILIISSLMFDEEFDPFKTSSFNKRSKFLSTVAKFLARVIKEKFDEFIKTHEDLPKEVDGLEVGPVVQVGIFIKILNDSLIYHLKDCAEVDSRTKIRMLTQAAEFLSPYISTHLKTICNLLISDTESNELIQKLQNSANNNSDDEDVDDEELDITPLFPIDRNSTILYLNVFHGLCAGANNPKIQTKDSVKEIVLPLFYDLLNAASIESADILCPLLESFITFSLDDWISIGYETELKKITDKTIKAFMDSTIGNSKVDMKYDIFAKFIHHIHHFEKKELQEKFLNQIATLKIHLKKFLQEKMDPNNSRDDYKDLTCSLYELYINKLTILGRDYPIEVDEELLQLFLNNFVSRIPIMFQDFDDSTAQEINFKMLVLLATWNLEKWREIIEKVRDYENSISKDLRSVWKPIAAIIGRLNTLVISLAATNETFENINSLFYLKWSACTSLMDIIVAIKIFELKLPADATTWRYSMSEQFPFYLHDNASKVLLKIFLYLESLFAKQVDVQLERVADEDANLNDLPETGFFENIETEFLLFTVKLKGLMKLNILDERFASRVALNKEKLGPLFKKIVDDTIMENPEPNKKNIQKAKSNQTQREKAPLQPNSERETDHANTENNDPDIPMTIDLEPIEESSQNNSELAPIEEHPTVVDAIDNSDEITQD
# Biological target: T1, Mrc1-YFP (S. cerevisiae)
# Experiment: affinity purification with mass spectrometry
row,binding,Binder
1,binds,B1
2,binds,B2
3,binds,B3
4,binds,B4
5,binds,B5
